Experimental data: patent US20100189657A1, “INTRAMOLECULARLY QUENCHED FLUOROCHROME CONJUGATES AND METHODS OF USE” (THE GENERAL HOSPITAL CORPORATION, priority 2006, published 2010)
Not every detail of the peptide structures is certain; ends, links or a residue may be inferred.

Chains of the proteins cited; added tags and fusions are not shown. Residues count along the entry.
UniProt P25774, 115-331: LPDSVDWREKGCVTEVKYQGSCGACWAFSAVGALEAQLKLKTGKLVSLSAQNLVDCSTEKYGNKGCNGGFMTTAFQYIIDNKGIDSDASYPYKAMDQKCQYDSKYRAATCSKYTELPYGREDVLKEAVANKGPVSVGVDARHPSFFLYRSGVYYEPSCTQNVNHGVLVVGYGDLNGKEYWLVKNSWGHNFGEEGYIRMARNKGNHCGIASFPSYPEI
UniProt P07711, 114-288 limits assumed: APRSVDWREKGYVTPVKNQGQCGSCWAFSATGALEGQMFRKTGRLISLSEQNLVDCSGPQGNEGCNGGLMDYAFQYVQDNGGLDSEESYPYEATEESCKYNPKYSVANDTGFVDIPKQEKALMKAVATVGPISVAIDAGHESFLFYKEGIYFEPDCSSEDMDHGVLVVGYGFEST
UniProt P07711, 292-333 limits assumed: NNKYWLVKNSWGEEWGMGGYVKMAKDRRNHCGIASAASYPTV

Key:
Assay type in all cases: biochemical
[1] = biological target: T1, human recombinant cathepsin S (Homo sapiens, UniProt P25774); test: Probe activation by cathepsin S (fluorescence increase)
T1 construct: purchased EMD Biosciences (San Diego, Calif.)

Human liver cathepsin L = biological target: T2, Human liver cathepsin L (Homo sapiens, UniProt P07711); test: Probe activation selectivity, cathepsin L; conditions: pH 5.5, 10 mM phosphate buffer, 20% DMSO
T2 construct: Human liver cathepsin L; purchased EMD Biosciences (San Diego, Calif.); host or cells: human liver (tissue of origin)

[2] = biological target: T3, Human recombinant cathepsin K (Homo sapiens, UniProt P43235); test: Probe activation selectivity, cathepsin K; conditions: pH 4.5, 10 mM phosphate buffer, 20% DMSO
T3 construct: purchased EMD Biosciences (San Diego, Calif.)
T3 sequence (P43235 115-329): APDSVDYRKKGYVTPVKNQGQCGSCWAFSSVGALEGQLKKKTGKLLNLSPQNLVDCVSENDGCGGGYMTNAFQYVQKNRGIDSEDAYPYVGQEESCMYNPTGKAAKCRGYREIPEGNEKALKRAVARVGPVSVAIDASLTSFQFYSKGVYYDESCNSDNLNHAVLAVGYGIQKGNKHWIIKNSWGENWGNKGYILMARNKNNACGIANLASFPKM

SMILES	increase in fluorescence with cathepsin S ([1]; pH 6.5, 20% DMSO) [fold]	increase in fluorescence with cathepsin S ([1]; pH 6.5 buffer without DMSO)	activation of the probe by cathepsin L (Human liver cathepsin L)	activation of the probe by cathepsin K [2]	increase in fluorescence on treatment with cathepsin S ([1]; 20% DMSO in 10 mM phosphate buffer pH 7.4, 8 h, vs no-enzyme control)
CC(C)C[C@H](NC(=O)CCNC(=O)CCOCCOCCOCCOCCNC(=O)CCOCCOCCOCCOCCNC(=O)CCSC1=C(/C=C/C2=[N+](CCCCS(=O)(=O)O)c3ccccc3C2(C)C)CCC/C1=C\C=C1\N(CCCCS(=O)(=O)O)c2ccccc2C1(C)C)C(=O)N[C@@H](CCCNC(=N)N)C(=O)NCCC(=O)NCCCC[C@H](NC(=O)CCNC(=O)[C@H](CCCNC(=N)N)NC(=O)[C@H](CC(C)C)NC(=O)CCNC(=O)CCOCCOCCOCCOCCNC(=O)CCOCCOCCOCCOCCNC(=O)CCSC1=C(/C=C/C2=[N+](CCCCS(=O)(=O)O)c3ccccc3C2(C)C)CCC/C1=C\C=C1\N(CCCCS(=O)(=O)O)c2ccccc2C1(C)C)C(=O)NCCCC[C@H](NC(=O)[C@H](CCCCNC(=O)CCNC(=O)[C@H](CCCNC(=N)N)NC(=O)[C@H](CC(C)C)NC(=O)CCNC(=O)CCOCCOCCOCCOCCNC(=O)CCOCCOCCOCCOCCNC(=O)CCSC1=C(/C=C/C2=[N+](CCCCS(=O)(=O)O)c3ccccc3C2(C)C)CCC/C1=C\C=C1\N(CCCCS(=O)(=O)O)c2ccccc2C1(C)C)NC(=O)CCNC(=O)[C@H](CCCNC(=N)N)NC(=O)[C@H](CC(C)C)NC(=O)CCNC(=O)CCOCCOCCOCCOCCNC(=O)CCOCCOCCOCCOCCNC(=O)CCSC1=C(/C=C/C2=[N+](CCCCS(=O)(=O)O)c3ccccc3C2(C)C)CCC/C1=C\C=C1\N(CCCCS(=O)(=O)O)c2ccccc2C1(C)C)C(=O)NCCC(=O)O [CyPEG-2]	28	more than 70 fold	did not show substantial activation	did not show substantial activation	
CC(C)C[C@H](NC(=O)CCNC(=O)CCOCCOCCOCCOCCNC(=O)CCOCCOCCOCCOCCNC(=O)CCOCCOCCOCCOCCNC(=O)CCSC1=C(/C=C/C2=[N+](CCCCS(=O)(=O)O)c3ccccc3C2(C)C)CCC/C1=C\C=C1\N(CCCCS(=O)(=O)O)c2ccccc2C1(C)C)C(=O)N[C@@H](CCCNC(=N)N)C(=O)NCCC(=O)NCCCC[C@H](NC(=O)CCNC(=O)[C@H](CCCNC(=N)N)NC(=O)[C@H](CC(C)C)NC(=O)CCNC(=O)CCOCCOCCOCCOCCNC(=O)CCOCCOCCOCCOCCNC(=O)CCOCCOCCOCCOCCNC(=O)CCSC1=C(/C=C/C2=[N+](CCCCS(=O)(=O)O)c3ccccc3C2(C)C)CCC/C1=C\C=C1\N(CCCCS(=O)(=O)O)c2ccccc2C1(C)C)C(=O)NCCCC[C@H](NC(=O)[C@H](CCCCNC(=O)CCNC(=O)[C@H](CCCNC(=N)N)NC(=O)[C@H](CC(C)C)NC(=O)CCNC(=O)CCOCCOCCOCCOCCNC(=O)CCOCCOCCOCCOCCNC(=O)CCOCCOCCOCCOCCNC(=O)CCSC1=C(/C=C/C2=[N+](CCCCS(=O)(=O)O)c3ccccc3C2(C)C)CCC/C1=C\C=C1\N(CCCCS(=O)(=O)O)c2ccccc2C1(C)C)NC(=O)CCNC(=O)[C@H](CCCNC(=N)N)NC(=O)[C@H](CC(C)C)NC(=O)CCNC(=O)CCOCCOCCOCCOCCNC(=O)CCOCCOCCOCCOCCNC(=O)CCOCCOCCOCCOCCNC(=O)CCSC1=C(/C=C/C2=[N+](CCCCS(=O)(=O)O)c3ccccc3C2(C)C)CCC/C1=C\C=C1\N(CCCCS(=O)(=O)O)c2ccccc2C1(C)C)C(=O)NCCC(=O)O [CyPEG-3]					smallest increase in fluorescence signal
